Values of other authors in US20260048066A1, “TREATMENT OF NEURODEGENERATIVE DISORDERS UTILISING METHYLTHIONINIUM (MT)-CONTAINING COMPOUNDS” (WISTA LABORATORIES LTD, priority 2022, published 2026).
At least one structure is not confirmed: it was looked up by name or label, or the drawing left a doubt.

Settings: phase 2 study; cited from earlier work

Question: Which “minimum safe and effective dose” value does the source give for `CN(C)c1ccc2nc3ccc(N(C)C)cc3[s+]c2c1` [MTC, methylthioninium chloride] here?
Answer: 138 mg/day
